Results taken from the supplement of paper PMC6078165.
The reference is the same well before dosing, and untreated signal decays as well.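 Fibroblast labels name human fibroblasts: mostly primary ones from tissues such as uterus (C12385, HUF), lung (H6013), bone (Hs27A), adrenal (HADF) and skin (WS1), plus mammary HMF and breast cancer-associated Hs343T. The cancer cells are basal-like or mesenchymal-like triple-negative breast cancer lines. The paper calls a changed response a hit when it shifts by more than 3x the replicate standard deviation. The tissue of the other fibroblasts is not given here.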

System: BT20
Assay: relative JC-1 red fluorescence (viability) vs pre-drug, coculture with fibroblast (fraction); higher = more viable cancer cells
Method: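 JC-1 labelled TNBC cells cocultured 1:1 (1,500 cells each) with CellTrace Violet stained primary or stromal fibroblasts in 384-well plates in FluoroBrite medium, treated with one of 42 anticancer drugs at 0.1, 1, 10 or 100 uM. JC-1 red fluorescence (mitochondrial integrity in cancer cells only) was read by plate reader every 8 h for 72 h. Values are normalised to each well's pre-drug value. The stock of one drug was tenfold lower, so its dose labels may be too high.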

CC(=O)O[C@@]12CO[C@@H]1C[C@H](O)[C@@]1(C)C(=O)[C@H](O)C3=C(C)[C@@H](OC(=O)[C@H](O)[C@@H](NC(=O)OC(C)(C)C)c4ccccc4)C[C@@](O)([C@@H](OC(=O)c4ccccc4)[C@H]21)C3(C)C [Docetaxel]
relative JC-1 red fluorescence
Conditions | 8 h | 16 h | 24 h | 32 h | 40 h | 48 h | 56 h | 64 h | 72 h
0.1 µM, coculture fibroblast: C12385 | 0.893 | 0.806 | 0.757 | 0.68 | 0.603 | 0.562 | 0.527 | 0.516 | 0.517
0.1 µM, coculture fibroblast: H6013 | 0.90837 | 0.86 | 0.824 | 0.773 | 0.725 | 0.696 | 0.701 | 0.684 | 0.681
0.1 µM, coculture fibroblast: H6019 | 0.855 | 0.799 | 0.785 | 0.73 | 0.676 | 0.65 | 0.598 | 0.575 | 0.564
0.1 µM, coculture fibroblast: H6076 | 0.881 | 0.936 | 0.813 | 0.77 | 0.701 | 0.658 | 0.63 | 0.619 | 0.61
0.1 µM, coculture fibroblast: H6231 | 0.836 | 0.916 | 0.7561 | 0.688 | 0.63 | 0.591 | 0.541 | 0.516 | 0.499
0.1 µM, coculture fibroblast: HADF | 0.9677 | 0.868 | 0.819 | 0.755 | 0.729 | 0.698 | 0.678 | 0.674 | 0.66
0.1 µM, coculture fibroblast: HCFa | 0.895 | 0.834 | 0.8 | 0.722 | 0.672 | 0.62 | 0.577 | 0.552 | 0.512
0.1 µM, coculture fibroblast: HCPF | 0.899 | 0.892 | 0.7959 | 0.737 | 0.671 | 0.632 | 0.599 | 0.598 | 0.555
0.1 µM, coculture fibroblast: HHSteC | 0.943 | 0.878 | 0.84 | 0.75 | 0.705 | 0.665 | 0.63 | 0.611 | 0.577
0.1 µM, coculture fibroblast: HMF | 0.862 | 0.908 | 0.8206 | 0.757 | 0.684 | 0.626 | 0.59 | 0.562 | 0.55
0.1 µM, coculture fibroblast: HPFa | 0.908 | 0.895 | 0.886 | 0.798 | 0.781 | 0.724 | 0.713 | 0.696 | 0.67
0.1 µM, coculture fibroblast: HUF | 0.873 | 0.849 | 0.823 | 0.724 | 0.652 | 0.592 | 0.543 | 0.521 | 0.511
0.1 µM, coculture fibroblast: Hs5 | 0.6962 | 0.927 | 0.82 | 0.742 | 0.68 | 0.623 | 0.588 | 0.552 | 0.53
0.1 µM, coculture fibroblast: Hs27A | 0.762 | 0.91 | 0.814 | 0.867 | 0.923 | 0.943 | 0.868 | 0.927 | 0.9083
0.1 µM, coculture fibroblast: Hs343T | 0.983 | 0.89547 | 0.775 | 0.706 | 0.648 | 0.599 | 0.553 | 0.541 | 0.516
0.1 µM, coculture fibroblast: WS1 | 0.869 | 0.797 | 0.748 | 0.6641 | 0.596 | 0.553 | 0.5153 | 0.498 | 0.491
1 µM, coculture fibroblast: C12385 | 0.911 | 0.826 | 0.754 | 0.681 | 0.611 | 0.564 | 0.526 | 0.51 | 0.501
1 µM, coculture fibroblast: H6013 | 0.963 | 0.859 | 0.859 | 0.793 | 0.739 | 0.725 | 0.744 | 0.736 | 0.73
1 µM, coculture fibroblast: H6019 | 0.8575 | 0.7793 | 0.773 | 0.721 | 0.676 | 0.653 | 0.618 | 0.602 | 0.588
1 µM, coculture fibroblast: H6076 | 0.894 | 0.892 | 0.809 | 0.771 | 0.727 | 0.692 | 0.67 | 0.68 | 0.672
1 µM, coculture fibroblast: H6231 | 0.8436 | 0.944 | 0.799 | 0.708 | 0.627 | 0.557 | 0.49 | 0.462 | 0.429
1 µM, coculture fibroblast: HADF | 0.9919 | 0.92 | 0.854 | 0.8 | 0.761 | 0.728 | 0.713 | 0.7 | 0.689
1 µM, coculture fibroblast: HCFa | 0.941 | 0.871 | 0.832 | 0.752 | 0.696 | 0.648 | 0.621 | 0.596 | 0.548
1 µM, coculture fibroblast: HCPF | 0.858 | 0.875 | 0.791 | 0.741 | 0.692 | 0.646 | 0.614 | 0.612 | 0.583
1 µM, coculture fibroblast: HHSteC | 0.911 | 0.844 | 0.864 | 0.778 | 0.741 | 0.705 | 0.686 | 0.6657 | 0.633
1 µM, coculture fibroblast: HMF | 0.822 | 0.88017 | 0.724 | 0.6303 | 0.54852 | 0.49 | 0.422 | 0.393 | 0.369
1 µM, coculture fibroblast: HPFa | 0.9183 | 0.817 | 0.832 | 0.73 | 0.702 | 0.651 | 0.657 | 0.646 | 0.637
1 µM, coculture fibroblast: HUF | 0.926 | 0.886 | 0.853 | 0.769 | 0.7 | 0.641 | 0.611 | 0.604 | 0.589
1 µM, coculture fibroblast: Hs5 | 0.785 | 0.935 | 0.847 | 0.8014 | 0.748 | 0.712 | 0.668 | 0.654 | 0.631
1 µM, coculture fibroblast: Hs27A | 0.755 | 0.941 | 0.895 | 0.897 | 0.818 | 0.766 | 0.84 | 0.828 | 0.783
1 µM, coculture fibroblast: Hs343T | 0.914 | 0.869 | 0.709 | 0.596 | 0.5 | 0.427 | 0.3378 | 0.3 | 0.263
1 µM, coculture fibroblast: WS1 | 0.8909 | 0.81 | 0.796 | 0.738 | 0.679 | 0.643 | 0.601 | 0.597 | 0.604
